No constants are given. Whether binding was seen depends on the method and setting. Binding seen in cells or lysates may run through a third protein. Here binding means that the protein was enriched with, or labelled near, the bait; the list need not be complete. No binding means not detected with the bait. Blank lines part the entries; values can stand above or below the molecule they belong to.
How the values were obtained:
[1] = biological target: Flag-tagged Voa3 (V-ATPase Vo domain subunit a3, ATP6Voa3/TCIRG1) (human) (UniProt Q13488); assay: affinity purification with mass spectrometry; SILAC Co-IP from MEFs expressing empty vector and either HA-V1B2 or Flag-Voa3; lysis in 40 mM HEPES pH 7.4, 150 mM NaCl, 2 mM EDTA, 1% Triton X-100, 5% glycerol; anti-HA or anti-Flag with Dynabeads protein G, 2 h at 4 °C; full medium, 1 h amino acid starvation, or starvation + 30 min amino acid restimulation
[2] = biological target: HA-tagged V1B2 (V-ATPase V1 domain subunit B2, ATP6V1B2) (human) (UniProt P21281); assay: as above

By UniProt entry, the sequences of proteins in these tests, tags left out. Residues count along the entry.
UniProt Q13488: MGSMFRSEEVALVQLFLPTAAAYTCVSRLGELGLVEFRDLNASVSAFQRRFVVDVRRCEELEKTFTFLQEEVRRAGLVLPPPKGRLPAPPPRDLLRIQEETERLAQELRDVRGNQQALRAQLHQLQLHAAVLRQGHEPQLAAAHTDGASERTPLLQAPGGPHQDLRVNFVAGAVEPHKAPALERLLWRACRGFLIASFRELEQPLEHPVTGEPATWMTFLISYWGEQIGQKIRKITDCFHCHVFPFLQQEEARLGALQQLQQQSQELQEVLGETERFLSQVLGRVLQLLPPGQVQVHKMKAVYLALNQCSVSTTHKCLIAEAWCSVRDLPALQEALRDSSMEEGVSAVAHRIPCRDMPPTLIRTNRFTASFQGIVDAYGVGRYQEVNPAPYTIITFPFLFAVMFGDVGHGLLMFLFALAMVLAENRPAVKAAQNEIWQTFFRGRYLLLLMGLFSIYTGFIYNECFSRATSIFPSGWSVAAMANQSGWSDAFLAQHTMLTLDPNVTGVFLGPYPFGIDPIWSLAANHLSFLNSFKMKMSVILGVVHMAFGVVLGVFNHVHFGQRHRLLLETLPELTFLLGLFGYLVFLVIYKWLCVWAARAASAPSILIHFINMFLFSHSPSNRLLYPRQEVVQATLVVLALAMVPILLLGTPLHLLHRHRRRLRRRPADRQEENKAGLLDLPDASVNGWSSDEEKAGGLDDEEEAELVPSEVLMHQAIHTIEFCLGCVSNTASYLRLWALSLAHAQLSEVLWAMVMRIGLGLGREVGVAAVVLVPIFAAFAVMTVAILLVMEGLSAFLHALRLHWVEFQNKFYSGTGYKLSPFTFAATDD
UniProt P21281: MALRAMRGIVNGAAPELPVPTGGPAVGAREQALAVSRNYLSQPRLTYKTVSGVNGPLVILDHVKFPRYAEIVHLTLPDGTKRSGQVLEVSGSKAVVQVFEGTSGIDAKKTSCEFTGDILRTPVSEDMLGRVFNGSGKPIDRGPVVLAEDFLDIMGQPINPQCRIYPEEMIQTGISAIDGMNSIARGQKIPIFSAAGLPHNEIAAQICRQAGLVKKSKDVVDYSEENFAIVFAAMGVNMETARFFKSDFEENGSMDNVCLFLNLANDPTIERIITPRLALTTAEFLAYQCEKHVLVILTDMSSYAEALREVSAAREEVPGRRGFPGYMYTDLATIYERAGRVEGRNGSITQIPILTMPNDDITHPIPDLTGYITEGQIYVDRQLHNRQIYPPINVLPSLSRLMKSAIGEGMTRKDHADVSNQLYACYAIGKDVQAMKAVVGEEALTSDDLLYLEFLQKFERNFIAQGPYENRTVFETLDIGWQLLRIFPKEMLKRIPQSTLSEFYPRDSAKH
UniProt Q9R1Q9, residues 33-463: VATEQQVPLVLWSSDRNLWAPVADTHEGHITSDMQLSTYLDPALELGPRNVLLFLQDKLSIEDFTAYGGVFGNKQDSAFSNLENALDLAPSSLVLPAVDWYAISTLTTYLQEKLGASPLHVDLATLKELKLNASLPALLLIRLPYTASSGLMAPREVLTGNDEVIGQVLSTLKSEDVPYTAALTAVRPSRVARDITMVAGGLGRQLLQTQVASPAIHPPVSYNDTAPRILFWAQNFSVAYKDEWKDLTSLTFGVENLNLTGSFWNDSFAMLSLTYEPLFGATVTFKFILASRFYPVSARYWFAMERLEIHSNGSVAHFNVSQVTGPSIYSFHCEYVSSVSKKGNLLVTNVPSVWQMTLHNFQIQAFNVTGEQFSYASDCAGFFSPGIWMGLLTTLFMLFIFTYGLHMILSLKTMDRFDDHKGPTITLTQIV
UniProt P11983: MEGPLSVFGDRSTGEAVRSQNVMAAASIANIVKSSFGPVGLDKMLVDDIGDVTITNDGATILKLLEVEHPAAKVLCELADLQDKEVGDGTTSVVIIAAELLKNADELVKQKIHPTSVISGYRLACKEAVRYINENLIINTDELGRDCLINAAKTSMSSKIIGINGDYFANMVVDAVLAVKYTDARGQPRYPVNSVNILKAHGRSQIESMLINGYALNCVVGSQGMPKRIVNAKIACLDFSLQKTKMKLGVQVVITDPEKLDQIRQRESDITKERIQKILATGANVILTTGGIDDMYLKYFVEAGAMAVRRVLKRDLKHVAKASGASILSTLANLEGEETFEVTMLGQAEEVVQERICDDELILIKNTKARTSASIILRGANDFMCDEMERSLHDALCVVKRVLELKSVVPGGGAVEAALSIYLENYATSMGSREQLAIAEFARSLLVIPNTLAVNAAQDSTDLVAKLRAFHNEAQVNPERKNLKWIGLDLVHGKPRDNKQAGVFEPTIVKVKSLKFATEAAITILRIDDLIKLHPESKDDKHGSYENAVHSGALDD
UniProt P80316: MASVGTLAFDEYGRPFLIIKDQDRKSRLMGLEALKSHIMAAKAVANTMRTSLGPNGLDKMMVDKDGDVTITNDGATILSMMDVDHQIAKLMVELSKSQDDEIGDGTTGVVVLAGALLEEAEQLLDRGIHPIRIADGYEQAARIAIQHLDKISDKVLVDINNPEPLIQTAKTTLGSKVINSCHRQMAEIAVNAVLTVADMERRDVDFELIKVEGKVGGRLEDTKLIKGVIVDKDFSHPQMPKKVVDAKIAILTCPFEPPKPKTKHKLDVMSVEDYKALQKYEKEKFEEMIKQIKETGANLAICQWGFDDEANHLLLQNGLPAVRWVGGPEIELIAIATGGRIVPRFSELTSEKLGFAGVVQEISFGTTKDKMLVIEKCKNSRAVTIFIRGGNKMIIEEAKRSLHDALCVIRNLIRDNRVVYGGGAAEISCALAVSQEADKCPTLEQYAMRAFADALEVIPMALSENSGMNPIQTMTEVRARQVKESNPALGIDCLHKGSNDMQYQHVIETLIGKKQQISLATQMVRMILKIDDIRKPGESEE
UniProt O88653: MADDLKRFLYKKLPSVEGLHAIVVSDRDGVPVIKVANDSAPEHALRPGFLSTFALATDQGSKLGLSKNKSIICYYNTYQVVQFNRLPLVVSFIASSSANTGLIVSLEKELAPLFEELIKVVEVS
UniProt Q3TWL2: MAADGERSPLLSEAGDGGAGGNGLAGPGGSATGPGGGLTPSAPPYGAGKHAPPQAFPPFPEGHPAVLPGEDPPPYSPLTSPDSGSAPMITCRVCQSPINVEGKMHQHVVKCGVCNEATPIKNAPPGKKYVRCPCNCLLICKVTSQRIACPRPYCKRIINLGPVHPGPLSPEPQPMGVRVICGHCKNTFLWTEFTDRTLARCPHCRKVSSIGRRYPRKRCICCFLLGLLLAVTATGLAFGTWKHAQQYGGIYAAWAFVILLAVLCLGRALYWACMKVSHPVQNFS
UniProt Q9CQ22: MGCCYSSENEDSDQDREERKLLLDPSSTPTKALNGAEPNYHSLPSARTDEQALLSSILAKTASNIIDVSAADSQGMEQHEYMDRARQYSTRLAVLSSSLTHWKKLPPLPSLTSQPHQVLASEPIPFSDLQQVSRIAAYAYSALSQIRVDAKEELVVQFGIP

Molecule: Atp6ap1 (from UniProt Q9R1Q9 33-463)
binding [1]: binds | binding [2]: no binding

Molecule: Cct1 (subunit of the chaperonin TRiC) (from UniProt P11983 1-556)
binding [1]: no binding | binding [2]: binds

Molecule: Cct5 (subunit of the chaperonin TRiC) (from UniProt P80316 1-541)
binding [1]: no binding | binding [2]: binds

B3: Cct2 (subunit of the chaperonin TRiC) (protein, UniProt P80314 1-535)
chain: MASLSLAPVNIFKAGADEERAETARLSSFIGAIAIGDLVKSTLGPKGMDKILLSSGRDAALMVTNDGATILKNIGVDNPAAKVLVDMSRVQDDEVGDGTTSVTVLAAELLREAESLIAKKIHPQTIISGWREATKAAREALLSSAVDHGSDEARFWQDLMNIAGTTLSSKLLTHHKDHFTKLAVEAVLRLKGSGNLEAIHVIKKLGGSLADSYLDEGFLLDKKIGVNQPKRIENAKILIANTGMDTDKIKIFGSRVRVDSTAKVAEIEHAEKEKMKEKVERILKHGINCFINRQLIYNYPEQLFGAAGVMAIEHADFAGVERLALVTGGEIASTFDHPELVKLGSCKLIEEVMIGEDKLIHFSGVALGEACTIVLRGATQQILDEAERSLHDALCVLAQTVKDPRTVYGGGCSEMLMAHAVTQLANRTPGKEAVAMESFAKALRMLPTIIADNAGYDSADLVAQLRAAHSEGHITAGLDMKEGTIGDMAVLGITESFQVKRQVLLSAAEAAEVILRVDNIIKAAPRKRVPDHHPC
binding [1]: no binding | binding [2]: binds

B4: Cct3 (subunit of the chaperonin TRiC) (protein, UniProt P80318 1-545)
chain: MMGHRPVLVLSQNTKRESGRKVQSGNINAAKTIADIIRTCLGPKSMMKMLLDPMGGIVMTNDGNAILREIQVQHPAAKSMIEISRTQDEEVGDGTTSVIILAGEMLSVAEHFLEQQMHPTVVISAYRMALDDMISTLKKISTPVDVNNREMMLSIINSSITTKVISRWSSLACNIALDAVKTVQFEENGRKEIDIKKYARVEKIPGGIIEDSCVLRGVMINKDVTHPRMRRYIKNPRIVLLDSSLEYKKGESQTDIEITREEDFTRILQMEEEYIHQLCEDIIQLKPDVVITEKGISDLAQHYLMRANVTAIRRVRKTDNNRIARACGARIVSRPEELREDDVGTGAGLLEIKKIGDEYFTFITDCKDPKACTILLRGASKEILSEVERNLQDAMQVCRNVLLDPQLVPGGGASEMAVAHALTEKSKAMTGVEQWPYRAVAQALEVIPRTLIQNCGASTIRLLTSLRAKHTQESCETWGVNGETGTLVDMKELGIWEPLAVKLQTYKTAVETAVLLLRIDDIVSGHKKKGDDQNRQTGAPDAGQE
binding [1]: no binding | binding [2]: binds

B5: Cct4 (subunit of the chaperonin TRiC) (protein, UniProt P80315 1-539)
chain: MPENVASRSGAPTAGPGSRGKSAYQDRDKPAQIRFSNISAAKAVADAIRTSLGPKGMDKMIQDGKGDVTITNDGATILKQMQVLHPAARMLVELSKAQDIEAGDGTTSVVIIAGSLLDSCTKLLQKGIHPTIISESFQKALEKGLEILTDMSRPVQLSDRETLLNSATTSLNSKVVSQYSSLLSPMSVNAVMKVIDPATATSVDLRDIKIVKKLGGTIDDCELVEGLVLTQKVANSGITRVEKAKIGLIQFCLSAPKTDMDNQIVVSDYAQMDRVLREERAYILNLVKQIKKTGCNVLLIQKSILRDALSDLALHFLNKMKIMVVKDVEREDIEFICKTIGTKPVAHIDQFTADMLGSAELAEEVSLNGSGKLFKITGCTSPGKTVTIVVRGSNKLVIEEAERSIHDALCVIRCLVKKRALIAGGGAPEIELALRLTEYSRTLSGMESYCVRAFADAMEVIPSTLAENAGLNPISTVTELRNRHAQGEKTTGINVRKGGISNILEEMVVQPLLVSVSALTLATETVRSILKIDDVVNTR
binding [1]: no binding | binding [2]: binds

B6: Cct7 (subunit of the chaperonin TRiC) (protein, UniProt P80313 1-544)
chain: MMPTPVILLKEGTDSSQGIPQLVSNISACQVIAEAVRTTLGPRGMDKLIVDGRGKATISNDGATILKLLDVVHPAAKTLVDIAKSQDAEVGDGTTSVTLLAAEFLKQVKPYVEEGLHPQIIIRAFRTATQLAVNKIKEIAVTVKKQDKVEQRKMLEKCAMTALSSKLISQQKVFFAKMVVDAVMMLDELLQLKMIGIKKVQGGALEESQLVAGVAFKKTFSYAGFEMQPKKYKNPKIALLNVELELKAEKDNAEIRVHTVEDYQAIVDAEWNILYDKLEKIHQSGAKVILSKLPIGDVATQYFADRDMFCAGRVPEEDLKRTMMACGGSIQTSVNALVPDVLGHCQVFEETQIGGERYNFFTGCPKAKTCTIILRGGAEQFMEETERSLHDAIMIVRRAIKNDSVVAGGGAIEMELSKYLRDYSRTIPGKQQLLIGAYAKALEIIPRQLCDNAGFDATNILNKLRARHAQGGMWYGVDINNENIADNFQAFVWEPAMVRINALTAASEAACLIVSVDETIKNPRSTVDPPAPSAGRGRGQARFH
binding [1]: no binding | binding [2]: binds

B9: Ccdc115 (protein, UniProt Q8VE99 1-180)
chain: MAVQALREELDSKCLQLLSDLEELEAKRAALNARVEEGWLSLAKARYAMGAKSVGPLQYASRMEPQVCVRASEAQDGPQTFRVIKADAQTPEEVGPSEASLRRRKGPTKTKELGSAVVPQDPLNWFGILVPHSLRQAQASFRDGLQLAADIASLQTRINWGQSQLRGLQKKLKELDPGPA
binding [1]: binds | binding [2]: no binding

The remaining lines, values ahead:

binding [1]: binds
Molecule: Lamtor 3 (subunit of the ragulator complex) (from UniProt O88653 1-124)

binding [1]: binds | binding [2]: binds
Molecule: Tmem55b (from UniProt Q3TWL2 1-284)

binding [1]: binds
Molecule: Lamtor 1 (subunit of the ragulator complex) (from UniProt Q9CQ22 1-161)

binding [1]: binds | binding [2]: binds
B1: flotillin-1 (protein, UniProt O08917 1-428)
chain: MFFTCGPNEAMVVSGFCRSPPVMVAGGRVFVLPCIQQIQRISLNTLTLNVKSEKVYTRHGVPISVTGIAQVKIQGQNKEMLAAACQMFLGKTEAEIAHIALETLEGHQRAIMAHMTVEEIYKDRQKFSEQVFKVASSDLVNMGISVVSYTLKDIHDDQDYLHSLGKARTAQVQKDARIGEAEAKRDAGIREAKAKQEKVSAQCLSEIEMAKAQRDYELKKATYDIEVNTRRAQADLAYQLQVAKTKQQIEEQRVQVQVVERAQQVAVQEQEIARREKELEARVRKPAEAERYRLERLAEAEKAQLIMQAEAEAESVRMRGEAEAFAIGARARAEAEQMAKKAEAFQMYQEAAQLDMLLEKLPQVAEEISGPLTSANKITLVSSGSGTMGAAKVTGEVLDILSRLPESVERLTGVSISQVNHNKPLRTA

binding [1]: binds | binding [2]: binds
B2: flotillin-2 (protein, UniProt Q60634 1-428)
chain: MGNCHTVGPNEALVVSGGCCGSDYKQYVFGGWAWAWWCISDTQRISLEIMTLQPRCEDVETAEGVALTVTGVAQVKIMTEKELLAVACEQFLGKNVQDIKNVVLQTLEGHLRSILGTLTVEQIYQDRDQFAKLVREVAAPDVGRMGIEILSFTIKDVYDKVDYLSSLGKTQTAVVQRDADIGVAEAERDAGIREAECKKEMLDVKFMADTKIADSKRAFELQKSAFSEEVNIKTAEAQLAYELQGAREQQKIRQEEIEIEVVQRKKQIAVEAQEILRTDKELIATVRRPAEAEAHRIQQIAEGEKVKQVLLAQAEAEKIRKIGEAEAAVIEAMGKAEAERMKLKAEAYQKYGDAAKMALVLEALPQIAAKISAPLTKVDEIVVLSGDNSKVTSEVNRLLAELPASVHALTGVDLSKIPLIKNATGAQV

binding [1]: no binding | binding [2]: binds
B7: Cct8 (subunit of the chaperonin TRiC) (protein, UniProt P42932 1-548)
chain: MALHVPKAPGFAQMLKDGAKHFSGLEEAVYRNIQACKELAQTTRTAYGPNGMNKMVINRLEKLFVTNDAATILRELEVQHPAAKMIVMASHMQEQEVGDGTNFVLVFAGALLELAEELLRIGLSVSEVISGYEIACKKAHEILPELVCCSAKNLRDVDEVSSLLRTSIMSKQYGSETFLAKLIAQACVSIFPDSGNFNVDNIRVCKILGSGIYSSSVLHGMVFKKETEGDVTSVKDAKIAVYSCPFDGMITETKGTVLIKTAEELMNFSKGEENLMDAQVKAIAGTGANVIVTGGKVADIALHYANKYNIMLVRLNSKWDLRRLCKTVGATALPKLTPPVQEEMGHCDSVYLSEVGDTQVVVFKHEKEDGAISTIVLRGSTDNLMDDIERAVDDGVNTFKVLTRDKRLVPGGGATEIELAKQITSYGETCPGLEQYAIKKFAEAFEAIPRALAENSGVKANEVISKLYSVHQEGNKNVGLDIEAEVPAVKDMLEASILDTYLGKYWAIKLATNAAVTVLRVDQIIMAKPAGGPKPPSGKKDWDDDQND

binding [1]: binds | binding [2]: no binding
B8: Tmem199 (protein, UniProt Q5SYH2 1-208)
chain: MASSLLAGERLVRALGPGGELEREQLPRKLRAQLEAALGKKHAGSDNATGPRRLVSFRLIRDLHQHLRERNSRLYLHELLEGSDIYFPEIVKPPRNPELVARLEKIKIQLANEEYKRITRNVTCQDAQCGGTLSDLGKQVRSVKALVVTIFNFIITVAAAFVCTYLGSQYVFTEMASRVLAALIVASVVGLAELYVMVRAMEGELGEL

Source: PMC9385660
